Laboratory results as given in PubChem BioAssay AID330 (DTP/NCI, 2004).
The list does not hold the whole screen: it gathers tests that were run many times, whatever their T/C, doses with no T/C, and many T/C values between a quarter and a half above the control. Other doses and runs of a compound stand elsewhere. T/C gives the treated animals as a percentage of the vehicle group. Some entries give survivors of the animals treated and no T/C: the source files T/C as zero there, which appears to mark a toxic dose or a test without result, not a measured value. Some survivor counts are full or nearly so, which does not show that the dose was tolerated: survival well below the control is almost never listed, so the zero probably covers shortened survival too. Counts of survivors are from the toxicity check (mostly the fifth day) where no day follows; animals may have died later. Schedules are NCI's codes, taken here to give the interval after Q, in days (D) or hours (H), and the number of doses after X. Where survival is the endpoint, this PubChem deposit counts one and a half times the control or more as active, and values a quarter to a half above the control carry no call in these data; other NCI protocols may use other cut-offs. Some entries were tested several times; the results are listed from low to high. Some T/C values carry the count of animals alive at the toxicity check (mostly the fifth day); where none is given, no animal had died by that day.

System: P388 leukemia ip, CD2F1 mice, survival T/C
Experiment: NCI In Vivo Anticancer Drug Screen. Data for tumor model P388 Leukemia (intraperitoneal) in CD2F1 (CDF1) mice
Conditions: T/C endpoint: median survival time, higher T/C = longer survival
[1] = dose: 200.0 mg/kg/injection, schedule: Q01DX009 (ip), vehicle: saline
[2] = dose: 25.0 mg/kg/injection, schedule: Q01DX009 (ip), vehicle: saline with Tween-80
[3] = dose: 50.0 mg/kg/injection, schedule: Q04DX003 (ip), vehicle: saline with Tween-80
[4] = dose: 200.0 mg/kg/injection, schedule: Q01DX005 (ip), vehicle: saline
[5] = dose: 100.0 mg/kg/injection, schedule: Q01DX009 (ip), vehicle: saline with Tween-80
[6] = dose: 200.0 mg/kg/injection, schedule: Q01DX009 (ip), vehicle: saline with Tween-80

With `CCCCC(=O)OCC(=O)[C@]1(O)Cc2c(O)c3c(c(O)c2[C@@H](OC2CC(NC(=O)C(F)(F)F)C(O)C(C)O2)C1)C(=O)c1c(OC)cccc1C3=O` (some centres not stated) the T/C (dose: 1.4 mg/kg/injection, schedule: Q01DX009 (ip), vehicle: clinical formulation) was 138 % of control, the T/C (dose: 2.0 mg/kg/injection, schedule: Q04DX003 (ip), vehicle: saline with Tween-80) was 125 % of control and the T/C (dose: 2.33 mg/kg/injection, schedule: Q01DX009 (ip), vehicle: clinical formulation, evaluated on day 45) was 147 % of control. For the same molecule, the T/C (dose: 2.33 mg/kg/injection, schedule: Q01DX009 (ip), vehicle: clinical formulation, evaluated on day 60) was 137 % of control, the T/C (dose: 3.89 mg/kg/injection, schedule: Q01DX009 (ip), vehicle: clinical formulation, evaluated on day 45) was 148 % of control and the T/C (dose: 3.89 mg/kg/injection, schedule: Q01DX009 (ip), vehicle: clinical formulation, evaluated on day 60) was 134 % of control. For the same molecule, the T/C (dose: 6.48 mg/kg/injection, schedule: Q01DX009 (ip), vehicle: clinical formulation) was 142 % of control, the T/C (dose: 16.0 mg/kg/injection, schedule: Q04DX003 (ip), vehicle: saline with Tween-80) was 127 and 136 % of control and the T/C (dose: 18.75 mg/kg/injection, schedule: Q04DX003 (ip), vehicle: clinical formulation) was 138 % of control. The T/C (dose: 19.4 mg/kg/injection, schedule: Q04DX003 (ip), vehicle: clinical formulation) was 143 % of control, the T/C (dose: 21.6 mg/kg/injection, schedule: Q04DX003 (ip), vehicle: clinical formulation) was 133 % of control [6 of 7 alive] and the T/C (dose: 32.0 mg/kg/injection, schedule: Q04DX003 (ip), vehicle: saline with Tween-80) was 125, 133, 138 % of control. The T/C (dose: 37.5 mg/kg/injection, schedule: Q04DX003 (ip), vehicle: clinical formulation) was 146 % of control, the survivor count (dose: 40.0 mg/kg/injection, schedule: Q01DX004 (ip), vehicle: distilled water + Tween-80) was 10 of 10 and the survivor count (dose: 50.0 mg/kg/injection, schedule: Q01DX004 (ip), vehicle: distilled water + Tween-80) was 10 of 10. For the same molecule, the survivor count (dose: 50.0 mg/kg/injection, schedule: Q01DX009 (ip), vehicle: clinical formulation) was 8 of 8, the survivor count (dose: 60.0 mg/kg/injection, schedule: Q01DX004 (ip), vehicle: distilled water + Tween-80) was 7 of 10 and the T/C (dose: 64.0 mg/kg/injection, schedule: Q04DX003 (ip), vehicle: saline with Tween-80) was 128 % of control. For the same molecule, the T/C (dose: 75.0 mg/kg/injection, schedule: Q04DX003 (ip), vehicle: clinical formulation) was 132 % of control, the T/C (dose: 150.0 mg/kg/injection, schedule: Q04DX003 (iv), vehicle: saline with Tween-80) was 133 % of control and the survivor count (dose: 300.0 mg/kg/injection, schedule: Q04DX003 (ip), vehicle: saline with Tween-80) was 5 of 6. The T/C (dose: 300.0 mg/kg/injection, schedule: Q04DX003 (iv), vehicle: saline with Tween-80) was 130 % of control [5 of 6 alive], the survivor count (dose: 600.0 mg/kg/injection, schedule: Q04DX003 (ip), vehicle: saline with Tween-80) was 4 of 6 and the survivor count (dose: 2048.0 mg/kg/injection, schedule: Q04DX003 (ip), vehicle: saline with Tween-80) was 2 of 6 on day 9.
For `O=C(CBr)C(=O)OCc1ccccc1`, the survivor count (dose: 12.5 mg/kg/injection, schedule: Q01DX009 (ip), vehicle: other) was 3 of 6, the survivor count (dose: 12.5 mg/kg/injection, schedule: Q01DX009 (ip), vehicle: water) was 6 of 6 and the survivor count (dose: 25.0 mg/kg/injection, schedule: Q01DX009 (ip), vehicle: other) was 0 of 6. For the same molecule, the survivor count (dose: 50.0 mg/kg/injection, schedule: Q01DX009 (ip), vehicle: other) was 0 of 6, the survivor count (dose: 100.0 mg/kg/injection, schedule: Q01DX009 (ip), vehicle: other) was 0 of 6 and the survivor count (dose: 200.0 mg/kg/injection, schedule: Q01DX009 (ip), vehicle: other) was 0 of 6.
With `Cn1nc(-c2ccc(Cl)c(Cl)c2)nc2c(=O)n(C)c(=O)nc1-2` the survivor count (dose: 100.0 mg/kg/injection, schedule: Q01DX001 (ip), vehicle: Klucel (hydroxypropylcellulose) (HPC)) was 2 of 6 and the survivor count (dose: 200.0 mg/kg/injection, schedule: Q01DX001 (ip), vehicle: Klucel (hydroxypropylcellulose) (HPC)) was 0 of 6.
`CC1=NCCN=C(C)C1[N+](=O)[O-]` was tested, and the survivor count [1] was 6 of 6.
For `COc1ccc(CSC(=S)Nc2cccc(C(F)(F)F)c2)cc1`, the survivor count (dose: 100.0 mg/kg/injection, schedule: Q01DX009 (ip), vehicle: suspension in saline) was 2 of 6.
With `Nc1nc(N)c2nc(CNc3ccc(C(=O)NC(CC(=O)O)C(=O)O)cc3)cnc2n1` (configuration not stated) the T/C [2] was 145 % of control, the T/C [3] was 145 % of control [5 of 6 alive] and the T/C (dose: 150.0 mg/kg/injection, schedule: Q04DX003 (ip), vehicle: saline with Tween-80) was 133 % of control [5 of 6 alive].
With `Cc1ccc(N=Cc2cccs2)cc1` the survivor count (dose: 200.0 mg/kg/injection, schedule: Q01DX009 (ip), vehicle: Klucel (hydroxypropylcellulose) (HPC)) was 2 of 6.
`O=C(C=C(C(F)(F)F)C(F)(F)F)c1ccc(C(=O)C=C(C(F)(F)F)C(F)(F)F)cc1` was tested, and the survivor count (dose: 200.0 mg/kg/injection, schedule: Q04DX003 (ip), vehicle: saline with Tween-80) was 5 of 6.
`Cc1ccc(NCCNCC(O)CO)c2c(=O)c3ccccc3sc12` (configuration not stated) was tested, and the T/C (dose: 50.0 mg/kg/injection, schedule: Q01DX005 (ip), vehicle: Klucel (hydroxypropylcellulose) (HPC)) was 140 % of control, the survivor count (dose: 100.0 mg/kg/injection, schedule: Q01DX005 (ip), vehicle: Klucel (hydroxypropylcellulose) (HPC)) was 1 of 5 and the survivor count (dose: 100.0 mg/kg/injection, schedule: Q01DX005 (ip), vehicle: saline) was 1 of 5. For the same molecule, the survivor count [4] was 0 of 5.
With `CCC(CC)C(=O)NN(C)C` the survivor count [4] was 2 of 6.
For `CCC1=C(C)CCN(C)C1Cc1ccc(OC)cc1` (configuration not stated), the survivor count (dose: 120.0 mg/kg/injection, schedule: Q01DX005 (ip), vehicle: Klucel (hydroxypropylcellulose) (HPC)) was 0 of 6 and the survivor count (dose: 240.0 mg/kg/injection, schedule: Q01DX005 (ip), vehicle: Klucel (hydroxypropylcellulose) (HPC)) was 0 of 6.
`O=C(Nc1ccc(N(CCCl)CCCl)cc1)Oc1ccc(C(=O)O)cc1` was tested, and the T/C [2] was 133 % of control, the survivor count (dose: 50.0 mg/kg/injection, schedule: Q01DX009 (ip), vehicle: saline with Tween-80) was 4 of 6 and the survivor count [5] was 0 of 6. The survivor count [6] was 0 of 6.
With `CC(=O)OC1C=CC2OC2(COC(=O)c2ccccc2)C1OC(C)=O` (configuration not stated) the survivor count (dose: 1.25 mg/kg/injection, schedule: Q01DX009 (ip), vehicle: Klucel (hydroxypropylcellulose) (HPC)) was 6 of 6.
`CCOC(=O)C(=C/C=C/N(C)C)C(=O)OCC` was tested, and the survivor count (dose: 400.0 mg/kg/injection, schedule: Q01DX001 (ip), vehicle: saline) was 0 of 6.
For `Nc1cnnc2nc[nH]c12`, the survivor count (dose: 200.0 mg/kg/injection, schedule: Q01DX005 (ip), vehicle: Klucel (hydroxypropylcellulose) (HPC)) was 0 of 6.
In the case of `CC1(C)CC(=O)C=C(Nc2ccc(O)cc2)C1`, the survivor count (dose: 50.0 mg/kg/injection, schedule: Q01DX005 (ip), vehicle: saline with Tween-80) is reported as 6 of 6 and the survivor count (dose: 200.0 mg/kg/injection, schedule: Q01DX005 (ip), vehicle: saline with Tween-80) is reported as 6 of 6.
`CN1CCN(c2ccncc2S(=O)(=O)N2CCCC2)CC1` was tested, and the survivor count [1] was 2 of 6.
With `Cc1ccc(S(=O)(=O)OCCN(CCOS(=O)(=O)c2ccc(C)cc2)c2ccc(C=O)cc2)cc1` the T/C (dose: 3.13 mg/kg/injection, schedule: Q04DX003 (ip), vehicle: saline with Tween-80) was 127 % of control, the T/C (dose: 6.25 mg/kg/injection, schedule: Q04DX003 (ip), vehicle: saline with Tween-80) was 131 % of control and the T/C [3] was 145 % of control. For the same molecule, the T/C [5] was 136 % of control, the survivor count (dose: 400.0 mg/kg/injection, schedule: Q01DX009 (ip), vehicle: saline with Tween-80) was 6 of 6 and the T/C (dose: 400.0 mg/kg/injection, schedule: Q04DX003 (ip), vehicle: saline with Tween-80) was 125 % of control.
`CC(=O)c1ccc(Nc2cc(C)nc(N)n2)cc1` was tested, and the survivor count (dose: 120.0 mg/kg/injection, schedule: Q01DX005 (ip), vehicle: saline with Tween-80) was 0 of 6 and the survivor count (dose: 240.0 mg/kg/injection, schedule: Q01DX005 (ip), vehicle: saline with Tween-80) was 0 of 6.
With `CCN(CC)CCNCc1cc(Cl)c2cccnc2c1O` the survivor count [1] was 0 of 6.
With `C[P+]1(C)CCc2c1ccc1ccccc21` the survivor count [5] was 3 of 6 and the survivor count [6] was 0 of 6.
